Laboratory results: publication PMC11564117, “Control of mitophagy initiation and progression by the TBK1 adaptors NAP1 and SINTBAD” (Nature Structural & Molecular Biology, 2024)

Protein sequences, listed by entry. Tags and fused reporters are not part of them. Lines headed by an entry give the natural chain unless they say otherwise; changes in a name come on top.
UniProt Q96CV9: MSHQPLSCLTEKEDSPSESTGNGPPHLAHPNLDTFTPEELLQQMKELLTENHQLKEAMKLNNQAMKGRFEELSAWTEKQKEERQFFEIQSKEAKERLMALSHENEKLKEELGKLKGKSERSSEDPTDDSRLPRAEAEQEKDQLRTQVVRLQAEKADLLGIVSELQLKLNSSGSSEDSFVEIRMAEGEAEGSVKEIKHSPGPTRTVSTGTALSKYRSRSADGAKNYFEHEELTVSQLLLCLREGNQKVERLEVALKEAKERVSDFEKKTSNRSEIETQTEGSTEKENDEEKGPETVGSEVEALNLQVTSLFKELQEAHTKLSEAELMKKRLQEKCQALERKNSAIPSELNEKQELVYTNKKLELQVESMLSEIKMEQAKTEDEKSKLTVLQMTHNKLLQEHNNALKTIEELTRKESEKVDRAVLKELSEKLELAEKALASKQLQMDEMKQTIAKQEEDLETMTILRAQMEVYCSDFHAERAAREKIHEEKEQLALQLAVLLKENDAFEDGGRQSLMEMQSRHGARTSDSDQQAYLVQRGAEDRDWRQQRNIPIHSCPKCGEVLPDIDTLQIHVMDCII
UniProt Q9UHD2: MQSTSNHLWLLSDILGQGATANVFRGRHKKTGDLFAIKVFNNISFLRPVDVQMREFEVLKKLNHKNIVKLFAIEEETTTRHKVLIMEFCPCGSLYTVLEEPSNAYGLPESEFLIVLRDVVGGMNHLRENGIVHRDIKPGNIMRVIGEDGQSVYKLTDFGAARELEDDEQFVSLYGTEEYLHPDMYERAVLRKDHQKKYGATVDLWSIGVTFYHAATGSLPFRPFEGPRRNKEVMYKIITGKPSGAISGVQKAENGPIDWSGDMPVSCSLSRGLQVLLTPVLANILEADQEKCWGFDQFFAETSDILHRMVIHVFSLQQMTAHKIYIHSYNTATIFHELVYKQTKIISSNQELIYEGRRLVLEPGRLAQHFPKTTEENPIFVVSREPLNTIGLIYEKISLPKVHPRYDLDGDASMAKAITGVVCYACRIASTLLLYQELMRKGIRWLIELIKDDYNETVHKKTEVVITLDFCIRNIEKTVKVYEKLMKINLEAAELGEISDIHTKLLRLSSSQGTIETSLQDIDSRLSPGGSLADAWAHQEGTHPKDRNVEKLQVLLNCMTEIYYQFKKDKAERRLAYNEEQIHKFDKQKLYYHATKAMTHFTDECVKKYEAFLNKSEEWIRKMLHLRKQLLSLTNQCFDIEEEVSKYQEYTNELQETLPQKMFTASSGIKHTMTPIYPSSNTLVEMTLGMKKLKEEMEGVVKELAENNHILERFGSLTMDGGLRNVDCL
UniProt Q8TDY2: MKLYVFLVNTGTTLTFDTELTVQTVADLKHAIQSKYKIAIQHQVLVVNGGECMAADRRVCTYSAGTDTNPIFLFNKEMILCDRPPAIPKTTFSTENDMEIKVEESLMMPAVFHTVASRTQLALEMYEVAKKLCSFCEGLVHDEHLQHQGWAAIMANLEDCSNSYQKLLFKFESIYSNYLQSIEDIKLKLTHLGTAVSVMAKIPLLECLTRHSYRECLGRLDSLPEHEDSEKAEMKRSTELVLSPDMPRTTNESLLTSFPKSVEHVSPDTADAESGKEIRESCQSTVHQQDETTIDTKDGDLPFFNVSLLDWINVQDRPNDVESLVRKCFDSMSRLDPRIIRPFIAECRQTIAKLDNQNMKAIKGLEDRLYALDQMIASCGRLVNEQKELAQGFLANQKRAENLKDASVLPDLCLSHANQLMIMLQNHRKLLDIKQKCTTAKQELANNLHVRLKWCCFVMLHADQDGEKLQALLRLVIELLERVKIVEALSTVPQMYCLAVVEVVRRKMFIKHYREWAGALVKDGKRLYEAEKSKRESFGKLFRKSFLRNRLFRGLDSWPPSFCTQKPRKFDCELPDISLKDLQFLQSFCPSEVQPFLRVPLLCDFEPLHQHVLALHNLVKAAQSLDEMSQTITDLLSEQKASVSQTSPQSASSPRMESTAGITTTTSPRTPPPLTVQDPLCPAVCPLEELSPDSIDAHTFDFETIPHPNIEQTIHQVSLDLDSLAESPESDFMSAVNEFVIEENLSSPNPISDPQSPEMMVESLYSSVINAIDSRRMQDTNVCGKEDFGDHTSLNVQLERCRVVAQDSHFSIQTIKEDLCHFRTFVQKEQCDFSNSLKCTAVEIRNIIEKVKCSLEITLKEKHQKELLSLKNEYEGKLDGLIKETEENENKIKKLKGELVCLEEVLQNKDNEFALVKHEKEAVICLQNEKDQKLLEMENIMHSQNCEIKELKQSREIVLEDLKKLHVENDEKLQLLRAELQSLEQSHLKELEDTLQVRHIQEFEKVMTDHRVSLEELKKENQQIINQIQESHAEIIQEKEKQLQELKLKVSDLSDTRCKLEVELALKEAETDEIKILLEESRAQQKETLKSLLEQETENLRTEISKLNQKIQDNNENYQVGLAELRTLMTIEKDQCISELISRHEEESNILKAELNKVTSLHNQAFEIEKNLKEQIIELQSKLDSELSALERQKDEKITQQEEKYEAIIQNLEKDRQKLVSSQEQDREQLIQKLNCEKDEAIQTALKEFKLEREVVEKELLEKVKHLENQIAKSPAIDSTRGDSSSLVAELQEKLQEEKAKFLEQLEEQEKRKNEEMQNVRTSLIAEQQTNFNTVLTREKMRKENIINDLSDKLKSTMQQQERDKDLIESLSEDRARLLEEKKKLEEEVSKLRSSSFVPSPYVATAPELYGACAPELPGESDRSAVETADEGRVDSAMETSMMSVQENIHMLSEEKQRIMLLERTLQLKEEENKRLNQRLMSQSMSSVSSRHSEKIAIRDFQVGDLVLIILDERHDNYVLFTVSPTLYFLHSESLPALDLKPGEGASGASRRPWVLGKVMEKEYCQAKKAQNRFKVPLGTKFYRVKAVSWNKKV

Assays:
OPTN-GST (human) = OPTN-GST (human) (UniProt Q96CV9); experiment: microscopy-based bead assay; Fig. 6e, Extended Data Fig. 10: GST, OPTN-GST or GST–NAP1 on glutathione beads; EGFP–TBK1 WT, KD or E696K 250 nM; 25 mM Tris-HCl pH 7.4, 150 mM NaCl, 1 mM DTT; 30 min; Extended Data Fig. 10 with and without ATP/MgCl2 (interaction weakened with ATP/MgCl2); confocal imaging; both purified
[1] = target: NAP1 delta-FIP200 (I11S/L12S), bait of the bead assay (human) (UniProt Q9H6S1); experiment: microscopy-based bead assay; Extended Data Fig. 3b: NAP1 wild type or point mutants on beads; NDP52–mCherry, FIP200–GFP and mCherry–TBK1 250 nM; 1 h; confocal imaging; both purified

binding (OPTN-GST (human))	binding [1]	Substance
binds	–	EGFP–TBK1 kinase-dead (KD) (from UniProt Q9UHD2) (enzyme)
–	no binding (tested: 250 nM)	FIP200–GFP (from UniProt Q8TDY2 1-1594)

No constants are given. Whether binding was seen depends on the method and setting. For some assays here: Binding can be weak; no strength is given.
